# From the supplement of paper PMC7830784
# Structures can show the parent of a compound that is named as a salt. The list shows a part of the results. Repeats in this data set agree poorly, so a single value says little. Starred links: 1 amine or outer side, 2 acyl side, 3 side chain; linkers in the order of their positions; H or OH if unused. Non-standard residues stand in square brackets, D forms with d. Residues, ends and D or L forms follow the SMILES beside them. ξ: configuration not given here. *: point of attachment. X4 = O=C([C@H](N[*:1])C1CCC(O)CC1)[*:2]; X6 = O=C(C(N[*:1])C1CCC(O)C(Cl)C1)[*:2]; X5 = O=C(C(N[*:1])C1CCC(O)CC1)[*:2]; aThr = C[C@H](O)[C@H](N)C(=O)O; dOrn = NCCC[C@@H](N)C(=O)O; X3 = CCC/C=C\C=C/C(=O)*; ξN = NC(=O)CC(N)C(=O)O
# System: Brugia pahangi adult female
# Assay: motility inhibition on day 3 relative to DMSO vehicle; higher = more active
# Details: 10 µM; 3 days
row,Structure (SMILES),motility inhibition on day 3
1,CCc1nc(N)nc(N)c1-c1ccc(Cl)cc1 [pyrimethamine],< 0%
2,CC(=O)[C@@]1(O)CC[C@H]2[C@@H]3C[C@H](C)C4=CC(=O)C=C[C@]4(C)[C@@]3(F)[C@@H](O)C[C@@]21C [fluorometholone],28.6%
3,CCC/C=C\C=C/C(=O)N[C@@H](CC(N)=O)C(=O)NC(CC(N)=O)C(=O)N[C@@H](C(=O)N[C@H](CCCN)C(=O)N[C@@H](C(=O)N[C@@H](C(=O)N[C@@H](C(=O)N[C@H](C(=O)N[C@@H](Cc1ccccc1)C(=O)N[C@H](CCCN)C(=O)NC(C(=O)N[C@H](C(=O)NC(C(=O)NCC(=O)N[C@@H](CC(C)C)C(=O)N[C@H](C)C(=O)NC(C(=O)O)C1CCC(O)C(Cl)C1)C1CCC(O)CC1)[C@H](C)O)C1CCC(O)CC1)[C@H](C)O)C1CCC(O)CC1)C1CCC(O)CC1)[C@H](C)O)C1CCC(O)CC1 (some centres undefined) [ramoplanin [a2 shown; 2mm]] (X3-N[ξN][X4][dOrn][dT][X4][X4][aThr]F[dOrn][X5][aThr][X5]GL[dA][X6]-OH),< 0%
4,CN1CC(=O)N2[C@H](c3ccc4c(c3)OCO4)c3[nH]c4ccccc4c3C[C@@H]2C1=O [tadalafil],24.4%
5,C1CCC(C(CC2CCCCN2)C2CCCCC2)CC1 (centres undefined) [perhexiline maleate],97.1%
6,CCCN1CCCC[C@H]1C(=O)Nc1c(C)cccc1C,14.1%
7,COc1cc(C(=O)NCc2ccc(OCCN(C)C)cc2)cc(OC)c1OC [trimethobenzamide hydrochloride],9.51%
8,O=C(O)COCCN1CCN(C(c2ccccc2)c2ccc(Cl)cc2)CC1 (centres undefined) [cetirizine hydrochloride],14.6%
9,CCCCC(CC)CCC(CC(C)C)OS(=O)(=O)O (centres undefined) [sodium tetradecyl sulfate],< 0%
10,N[C@@H]1CONC1=O [D-Cycloserine],< 0%
11,CC(=O)O[C@]1(C(C)=O)CC[C@H]2[C@@H]3C=C(Cl)C4=CC(=O)[C@@H]5C[C@@H]5[C@]4(C)[C@H]3CC[C@@]21C [cyproterone acetate],23.5%
12,N=C(N)c1ccc(/C=C/c2ccc(C(=N)N)cc2O)cc1 [Hydroxystilbamidine bis(methanesulfonate)],< 0%
13,Clc1ccc(CO/N=C(\Cn2ccnc2)c2ccc(Cl)cc2Cl)c(Cl)c1 [oxiconazole nitrate],40.5%
14,C#C[C@]1(OC(C)=O)CC[C@H]2[C@@H]3CCC4=CC(=NO)CC[C@@H]4[C@H]3CC[C@@]21CC (mixture of isomers) [norgestimate],8.31%
15,CCCc1c2oc(C(=O)O)cc(=O)c2cc2c(=O)cc(C(=O)O)n(CC)c12 [Nedocromil],< 0%
16,COc1ccc2cc([C@H](C)CO)ccc2c1 [naproxol],8.15%
17,O=C1c2ccccc2C(=O)C1c1ccc(Cl)cc1 [chlorindione],< 0%
18,Clc1ccc(Cn2c(CN3CCCC3)nc3ccccc32)cc1 [clemizole hydrochloride],78.3%
19,COc1cc2nc(N(C)CCCNC(=O)C3CCCO3)nc(N)c2cc1OC (centres undefined) [alfuzosin hydrochloride],20.8%
20,CCCN(CCc1cccs1)C1CCc2c(O)cccc2C1 (racemic) [rac-Rotigotine Hydrochloride],< 0%
21,CCCCCCCCCCCCCCCC(=O)OC[C@@H](NC(=O)C(Cl)Cl)[C@H](O)c1ccc([N+](=O)[O-])cc1 [chloramphenicol palmitate],32.6%
22,NC[C@@H]1CC[C@@H](N)[C@@H](O[C@H]2[C@H](O)[C@@H](O[C@H]3O[C@H](CO)[C@@H](O)[C@H](N)[C@H]3O)[C@H](N)C[C@@H]2N)O1 [dibekacin],21.5%

row,Structure (SMILES),motility inhibition on day 3
1,CC1=C(/C=C/C(C)=C/C=C/C(C)=C/C(=O)O)C(C)(C)CCC1 [tretinon],8.34%
2,N=C(N)NS(=O)(=O)c1ccc(N)cc1 [sulfaguanidine],< 0%
3,CC(=O)Oc1ccccc1C(=O)O [aspirin],< 0%
4,Cc1ncc(CO)c(CO)c1O [pyridoxine],5.99%
5,COc1cc2c3cc1Oc1cc(ccc1O)C[C@@H]1c4c(cc(OC)c(O)c4Oc4ccc(cc4)C[C@@H]3N(C)CC2)CC[N+]1(C)C [tubocurarine chloride],< 0%
6,CC1(C)[C@H](C(=O)O)N2C(=O)C[C@H]2S1(=O)=O [sulbactam],8.34%
7,CC1=C(C(=O)O)N2C(=O)[C@@H](NC(=O)[C@H](N)C3=CCC=CC3)[C@H]2SC1 [cephradine],11.6%
8,N[C@@H](CCC(=O)N[C@@H](CS)C(=O)NCC(=O)O)C(=O)O [glutathione],< 0%
9,COc1cc(C(=O)NCCCCCC(=O)O)cc(OC)c1OC [capobenic acid],9.45%
10,CCc1c(C)[nH]c2c1C(=O)C(CN1CCOCC1)CC2 (centres undefined) [Molindone Hydrochloride],0.93%
11,CCCN(CCC)S(=O)(=O)c1ccc(C(=O)O)cc1 [probenecid],14.8%
12,CCN(CC)C(=O)c1cccnc1 [nikethamide],42.3%
13,CCN(CC)C(=O)c1cccc(C)c1 [deet],10.4%
14,C[C@]12CC[C@@H]3c4ccc(O)cc4CC[C@H]3[C@@H]1CC[C@@H]2O [estradiol],7.8%
15,NC(Cc1cc(I)c(Oc2cc(I)c(O)c(I)c2)c(I)c1)C(=O)O (centres undefined) [thyroxine],28.1%
16,CN(C)CC/C=C1/c2ccccc2Sc2ccc(Cl)cc21 [chlorprothixene hydrochloride],15.5%
17,CC(=O)[C@H]1CC[C@H]2[C@@H]3CCC4=CC(=O)CC[C@]4(C)[C@H]3CC[C@]12C [progesterone],12.6%
18,COc1ccc2[nH]c([S+]([O-])Cc3ncc(C)c(OC)c3C)nc2n1 (centres undefined) [tenatoprazole],< 0%
19,O=C(O)CCCCC(=O)O [adipic acid],0.305%
20,CN(C)CCOC(c1ccccc1)c1ccccc1 [Diphenhydramine hydrochloride],< 0%
21,COc1cc(O)c(C(=O)c2ccccc2)cc1S(=O)(=O)O [sulisobenzone],2.73%
22,N=C(N)NC(=O)Cc1c(Cl)cccc1Cl [guanfacine hydrochloride],13.6%

# For reference, part of the list above.
row,Structure (SMILES),motility inhibition on day 3
4,Cc1ncc(CO)c(CO)c1O [pyridoxine],5.99%
5,COc1cc2c3cc1Oc1cc(ccc1O)C[C@@H]1c4c(cc(OC)c(O)c4Oc4ccc(cc4)C[C@@H]3N(C)CC2)CC[N+]1(C)C [tubocurarine chloride],< 0%
